# Data as given in article PMC4941368.
# Amino acid sequences for entries named in this document (tags omitted).
# UniProt P49715, whole entry: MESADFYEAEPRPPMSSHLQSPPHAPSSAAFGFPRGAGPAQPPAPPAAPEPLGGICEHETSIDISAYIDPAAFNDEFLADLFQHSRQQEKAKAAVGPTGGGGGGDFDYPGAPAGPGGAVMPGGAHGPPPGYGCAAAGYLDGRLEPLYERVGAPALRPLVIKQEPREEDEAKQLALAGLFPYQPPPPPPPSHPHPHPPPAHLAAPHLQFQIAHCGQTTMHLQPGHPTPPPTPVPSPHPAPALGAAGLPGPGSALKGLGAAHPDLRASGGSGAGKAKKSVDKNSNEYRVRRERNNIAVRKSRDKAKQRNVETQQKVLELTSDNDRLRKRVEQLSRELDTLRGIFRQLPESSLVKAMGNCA
# Construct, isoform or probe ends are uncertain for at least one entry. Results from cells or extracts need not show a direct contact. Weaker means in comparison with the reference protein, sequence or condition of that experiment.
# Molecular target: C/EBPα (UniProt P49715)
# Assay: EMSA
# Details: 4 µg Huh7 nuclear extract, 50 fmol 3'-biotin probe, 5% native PAGE at 4°C, chemiluminescence, preincubation with c-myc or antibody 1 h at 4°C, protein in an extract, label: 3'-biotin
sequence,measurement,setting,value
GAGAAAGAATTGTTTACTTTTAAACCCTGGA (double strand) [miR-122 promoter C/EBPα-binding probe],binding result,"complex lost after C/EBPα antibody depletion of extract, reduced by 100x unlabeled probe",binds
same,binding result,"extract preincubated with recombinant His6-c-myc, dose-dependent inhibition of binding",binds more weakly
